Laboratory results: PubChem BioAssay AID1224831 (NIAID, 2016)

Assay: 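Genes that support or restrain LPS-induced TNF-alpha reporter activity in macrophage-like cells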 (follow-up of hits)
System: human THP-1 B5 monocytic leukaemia cells carrying a TNF promoter luciferase reporter, made macrophage-like with PMA
Reagent: single siRNA against human genes, 50 nM
Time to read-out: about 68 h of knock-down, then 4 h LPS
Treatment: LPS (Salmonella minnesota, TLR-grade) at 10 ng/ml for 4 h; PMA 5 ng/ml present during knock-down
Measurement: 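TNF promoter reporter read as dual luciferase ratio after 4 h LPS, normalised per plate to its median, given as replicate mean robust z-score per siRNA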
Reading the numbers: TNF reporter z-score: higher = stronger LPS-induced TNF reporter signal; z-score, median over gene's siRNAs: higher = stronger TNF reporter signal across the gene's siRNAs
Rule for the call: 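Active when the replicate mean z-score is about -1 or lower, or about 1.5 or higher; lowered and raised TNF reporter signal both count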
Calls: active = changed TNF reporter (either direction); inactive = little change
Here is a random part of about 3,500 deposited reagents. Of all reagents, 731 (21%) got an active call. 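Active means either lowered or raised reporter signal; the gene-median score did not drive the per-siRNA calls.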 Entries without a mark were called inactive.

Target gene	PubChem SID	TNF reporter z-score, replicate mean	z-score, median over gene's siRNAs
FEZ1 (fasciculation and elongation protein zeta 1)	SID315483342	-0.19	0.21
FEZ1 (fasciculation and elongation protein zeta 1)	SID315483343	0.08	0.21
FEZ1 (fasciculation and elongation protein zeta 1)	SID315483344	-0.35	0.21
FEZ1 (fasciculation and elongation protein zeta 1)	SID315483345	0.34	0.21
FEZ1 (fasciculation and elongation protein zeta 1)	SID315483346	0.53	0.21
FEZ1 (fasciculation and elongation protein zeta 1)	SID315483347	0.57	0.21
OR10A5 (olfactory receptor family 10 subfamily A member 5)	SID315487806	-1.59 (active)	0.235
OR10A5 (olfactory receptor family 10 subfamily A member 5)	SID315487807	1.4	0.235
OR10A5 (olfactory receptor family 10 subfamily A member 5)	SID315487808	0.92	0.235
OR10A5 (olfactory receptor family 10 subfamily A member 5)	SID315487809	-0.04	0.235
OR10A5 (olfactory receptor family 10 subfamily A member 5)	SID315487810	0.51	0.235
OR10A5 (olfactory receptor family 10 subfamily A member 5)	SID315487811	-0.56	0.235
HEXA (hexosaminidase subunit alpha)	SID315482418	1.96 (active)	0.805
HEXA (hexosaminidase subunit alpha)	SID315482419	-0.02	0.805
HEXA (hexosaminidase subunit alpha)	SID315482420	0.28	0.805
HEXA (hexosaminidase subunit alpha)	SID315482421	0.61	0.805
HEXA (hexosaminidase subunit alpha)	SID315482422	1	0.805
HEXA (hexosaminidase subunit alpha)	SID315482423	1.37	0.805
AURKB (aurora kinase B)	SID315483228	-0.3	0.09
AURKB (aurora kinase B)	SID315483229	1.29	0.09
AURKB (aurora kinase B)	SID315483230	0.71	0.09
AURKB (aurora kinase B)	SID315483231	-0.64	0.09
AURKB (aurora kinase B)	SID315483232	0.48	0.09
AURKB (aurora kinase B)	SID315483233	-0.64	0.09
RNF121 (ring finger protein 121)	SID315485835	0.27	0.31
RNF121 (ring finger protein 121)	SID315485836	2.55 (active)	0.31
RNF121 (ring finger protein 121)	SID315485837	0.35	0.31
RNF121 (ring finger protein 121)	SID315485838	3.62 (active)	0.31
RNF121 (ring finger protein 121)	SID315485839	0.27	0.31
RNF121 (ring finger protein 121)	SID315485840	-0.47	0.31
BATF2 (basic leucine zipper ATF-like transcription factor 2)	SID315487626	-0.07	0.025
BATF2 (basic leucine zipper ATF-like transcription factor 2)	SID315487627	0.62	0.025
BATF2 (basic leucine zipper ATF-like transcription factor 2)	SID315487628	0.77	0.025
BATF2 (basic leucine zipper ATF-like transcription factor 2)	SID315487629	-1.01 (active)	0.025
BATF2 (basic leucine zipper ATF-like transcription factor 2)	SID315487630	0.01	0.025
BATF2 (basic leucine zipper ATF-like transcription factor 2)	SID315487631	0.04	0.025
ITGB3 (integrin subunit beta 3)	SID315482502	-0.25	-0.055
ITGB3 (integrin subunit beta 3)	SID315482503	-0.34	-0.055
ITGB3 (integrin subunit beta 3)	SID315482504	0.41	-0.055
ITGB3 (integrin subunit beta 3)	SID315482505	0.14	-0.055
ITGB3 (integrin subunit beta 3)	SID315482506	0.83	-0.055
ITGB3 (integrin subunit beta 3)	SID315482507	-0.67	-0.055
HTR3A (5-hydroxytryptamine receptor 3A)	SID315482472	1.44	0.53
HTR3A (5-hydroxytryptamine receptor 3A)	SID315482473	0.93	0.53
HTR3A (5-hydroxytryptamine receptor 3A)	SID315482474	0.13	0.53
HTR3A (5-hydroxytryptamine receptor 3A)	SID315482475	0.06	0.53
HTR3A (5-hydroxytryptamine receptor 3A)	SID315482476	-1.05 (active)	0.53
HTR3A (5-hydroxytryptamine receptor 3A)	SID315482477	1.09	0.53

6 neighbouring entries from above, quoted:
Target gene	PubChem SID	TNF reporter z-score, replicate mean	z-score, median over gene's siRNAs
ITGB3 (integrin subunit beta 3)	SID315482507	-0.67	-0.055
HTR3A (5-hydroxytryptamine receptor 3A)	SID315482472	1.44	0.53
HTR3A (5-hydroxytryptamine receptor 3A)	SID315482473	0.93	0.53
HTR3A (5-hydroxytryptamine receptor 3A)	SID315482474	0.13	0.53
HTR3A (5-hydroxytryptamine receptor 3A)	SID315482475	0.06	0.53
HTR3A (5-hydroxytryptamine receptor 3A)	SID315482476	-1.05 (active)	0.53

Continued:
Target gene	PubChem SID	TNF reporter z-score, replicate mean	z-score, median over gene's siRNAs
POP4 (POP4 ribonuclease P/MRP subunit)	SID315483510	-0.63	0.28
POP4 (POP4 ribonuclease P/MRP subunit)	SID315483511	-0.03	0.28
POP4 (POP4 ribonuclease P/MRP subunit)	SID315483512	-0.37	0.28
POP4 (POP4 ribonuclease P/MRP subunit)	SID315483513	0.59	0.28
POP4 (POP4 ribonuclease P/MRP subunit)	SID315483514	1.29	0.28
POP4 (POP4 ribonuclease P/MRP subunit)	SID315483515	1.01	0.28
SLC25A6	SID315482052	0.6	1
SLC25A6	SID315482053	1.66 (active)	1
SLC25A6	SID315482054	0.9	1
SLC25A6	SID315482055	1.2	1
SLC25A6	SID315482056	0.23	1
SLC25A6	SID315482057	1.11	1
JUP (junction plakoglobin)	SID315482508	-0.1	-0.845
JUP (junction plakoglobin)	SID315482509	-0.58	-0.845
JUP (junction plakoglobin)	SID315482510	-1.09 (active)	-0.845
JUP (junction plakoglobin)	SID315482511	-1.31 (active)	-0.845
JUP (junction plakoglobin)	SID315482512	-1.17 (active)	-0.845
JUP (junction plakoglobin)	SID315482513	-0.6	-0.845
C2CD2L (C2CD2 like)	SID315483372	0.76	1.03
C2CD2L (C2CD2 like)	SID315483373	-0.37	1.03
C2CD2L (C2CD2 like)	SID315483374	3.09 (active)	1.03
C2CD2L (C2CD2 like)	SID315483375	1.01	1.03
C2CD2L (C2CD2 like)	SID315483376	1.06	1.03
C2CD2L (C2CD2 like)	SID315483377	5.93 (active)	1.03
SASS6 (SAS-6 centriolar assembly protein)	SID315487932	0.33	1.5
SASS6 (SAS-6 centriolar assembly protein)	SID315487933	0.93	1.5
SASS6 (SAS-6 centriolar assembly protein)	SID315487934	2.07 (active)	1.5
SASS6 (SAS-6 centriolar assembly protein)	SID315487935	2.36 (active)	1.5
SASS6 (SAS-6 centriolar assembly protein)	SID315487936	2.33 (active)	1.5
SASS6 (SAS-6 centriolar assembly protein)	SID315487937	0.4	1.5
ALMS1 (ALMS1 centrosome and basal body associated protein)	SID315483048	-0.09	-0.025
ALMS1 (ALMS1 centrosome and basal body associated protein)	SID315483049	1.13	-0.025
ALMS1 (ALMS1 centrosome and basal body associated protein)	SID315483050	-1.74 (active)	-0.025
ALMS1 (ALMS1 centrosome and basal body associated protein)	SID315483051	-1.23 (active)	-0.025
ALMS1 (ALMS1 centrosome and basal body associated protein)	SID315483052	0.04	-0.025
ALMS1 (ALMS1 centrosome and basal body associated protein)	SID315483053	0.24	-0.025
